These are yes or no findings as the source states them, for the method shown. Some entries that bind do so weakly or less than the wild type.
Molecular target: S100A10 (p11) (UniProt P60903)
Test: SPR; NBD1 amine-coupled on CM5 chip; p11 (400 µg/ml) and preincubated cPLA2α/ANXA1 (100 µg/ml each) sequentially co-injected, the complex before dissociation of p11; both purified

The chains behind the UniProt entries cited, without tags or fusion partners.
UniProt P60903: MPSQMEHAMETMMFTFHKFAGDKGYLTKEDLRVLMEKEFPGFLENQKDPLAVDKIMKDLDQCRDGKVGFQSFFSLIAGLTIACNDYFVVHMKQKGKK

binding: binds
B1: cPLA2α/ANXA1 complex (preincubated) (complex, UniProt P47712 1-749; P46193 1-346)
chain 1: MSFIDPYQHIIVEHQYSHKFTVVVLRATKVTKGAFGDMLDTPDPYVELFISTTPDSRKRTRHFNNDINPVWNETFEFILDPNQENVLEITLMDANYVMDETLGTATFTVSSMKVGEKKEVPFIFNQVTEMVLEMSLEVCSCPDLRFSMALCDQEKTFRQQRKEHIRESMKKLLGPKNSEGLHSARDVPVVAILGSGGGFRAMVGFSGVMKALYESGILDCATYVAGLSGSTWYMSTLYSHPDFPEKGPEEINEELMKNVSHNPLLLLTPQKVKRYVESLWKKKSSGQPVTFTDIFGMLIGETLIHNRMNTTLSSLKEKVNTAQCPLPLFTCLHVKPDVSELMFADWVEFSPYEIGMAKYGTFMAPDLFGSKFFMGTVVKKYEENPLHFLMGVWGSAFSILFNRVLGVSGSQSRGSTMEEELENITTKHIVSNDSSDSDDESHEPKGTENEDAGSDYQSDNQASWIHRMIMALVSDSALFNTREGRAGKVHNFMLGLNLNTSYPLSPLSDFATQDSFDDDELDAAVADPDEFERIYEPLDVKSKKIHVVDSGLTFNLPYPLILRPQRGVDLIISFDFSARPSDSSPPFKELLLAEKWAKMNKLPFPKIDPYVFDREGLKECYVFKPKNPDMEKDCPTIIHFVLANINFRKYRAPGVPRETEEEKEIADFDIFDDPESPFSTFNFQYPNQAFKRLHDLMHFNTLNNIDVIKEAMVESIEYRRQNPSRCSVSLSNVEARRFFNKEFLSKPKA
chain 2: MAMVSEFLKQAWFIENEEQEYIKTVKGSKGGPGSAVSPYPTFNPSSDVEALHKAITVKGVDEATIIEILTKRNNAQRQQIKAAYLQEKGKPLDEVLKKALLGHLEEVVLALLKTPAQFDAEELRAAMKGLGTDEDTLNEILASRTNREIREINRVYREELKRDLAKDIASDTSGDYEKALLSLAKGDRSEELAVNDDLADSDARALYEAGERRKGTDVNVFITILTTRSYPHLRRVFQKYSKYSKHDMNKVLDLELKGDIEKCLTVIVKCATSQPMFFAEKLHQAMKGIGTRHKTLIRIMVSRSEIDMNDIKACYQKLYGISLCQAILDETKGDYEKILVALCGRD

Reference: publication PMC2760709
